Data published in paper PMC11818384.
No constants are given. Whether binding was seen depends on the method and setting. Some binding calls cover weakened binding; strength is not graded here.

What was measured:
[1] = molecular target: 6xHis-eGFP-hnRNPK fusion (full-length wild-type hnRNPK) (UniProt P61978); assay: X-ray diffraction of a hydrogel + SEM; eGFP-hnRNPK concentrated to 11.5 mg/mL, dialysed in 50 mM HEPES, 300 mM KCl, pH 7.4 at 4 °C overnight; hydrogel kept 48 h at 4 °C; both purified
[2] = molecular target: Heterogeneous nuclear ribonucleoprotein K (hnRNPK), full-length wild type with an additional N-terminal glycine (UniProt P61978); assay: condition: only sample kept at 4 °C and at low protein concentration; SEC-MALS; SEC-LS (RALS, RI, UV) on Superdex 200 Increase 10/300 run at room temperature; hnRNPK sample kept at 4 °C (vial holder at 4 °C), low concentration; both purified

Row | Substance | binding [1] | binding [2]
1 | 6xHis-eGFP-hnRNPK fusion (full-length wild-type hnRNPK) (from UniProt P61978 1-463) | binds | 
2 | Heterogeneous nuclear ribonucleoprotein K (hnRNPK), full-length wild type with an additional N-terminal glycine (from UniProt P61978 1-463) |  | no binding
